PubChem BioAssay AID504804, Drosophila RNAi Screening Center, 2011
In all, the deposit lists about 19,000 reagents; shown is an unselected part of those with a known target gene and a result. In the full data, 47 (0.25%) were called active. 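Signals are raw, not normalised; exact z-scores behind calls not deposited; actives needed confirmation, so some wells reaching 2 SD are inactive.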 Names joined by + are all predicted targets of the reagent.

- Aim: 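Knock-downs shielding fly cells from apoptosis caused by DNA damage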 (primary screen)
- Cell system: Drosophila Kc cells
- Knock-down reagent: long dsRNA against Drosophila genes, 0.5 µg dsRNA per well
- Time to read-out: 96 h (48 h knock-down, then 48 h drug)
- Conditions: doxorubicin 5 µg/ml for 48 h, added 48 h after dsRNA
- Measurement: 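Viability measured as cellular ATP by luminescence after 48 h knock-down then 48 h doxorubicin at 5 µg/ml; unnormalised plate counts for each replicate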
- Reading the numbers: raw ATP luminescence: higher = more viable cells, protection from doxorubicin
- Call rule: 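Active when both duplicate wells lie at least 2 SD above the plate mean and protection is confirmed by rescreening and independent dsRNAs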

Silencing of CG3589 [DRSC04392] came out at: raw ATP luminescence, replicate 1 = 80443; raw ATP luminescence, replicate 2 = 45960; inactive.
Lip3 [DRSC16727] gave raw ATP luminescence, replicate 1 = 81790; raw ATP luminescence, replicate 2 = 83160; inactive.
RpL6 [DRSC14323] showed raw ATP luminescence, replicate 1 = 29950; raw ATP luminescence, replicate 2 = 38200; inactive.
With knock-down of CG32533 [DRSC19553], the screen gave raw ATP luminescence, replicate 1 = 3.01e5; raw ATP luminescence, replicate 2 = 3.09e5; inactive.
Knock-down of Vha16-2 [DRSC10873] gave: raw ATP luminescence, replicate 1 = 78627; raw ATP luminescence, replicate 2 = 62520; inactive.
After knock-down of CG42307 + mus312 [DRSC11008] the results were raw ATP luminescence, replicate 1 = 86113; raw ATP luminescence, replicate 2 = 1.08e5; inactive.
With knock-down of Alg11 [DRSC11647], the screen gave raw ATP luminescence, replicate 1 = 23690; raw ATP luminescence, replicate 2 = 25167; inactive.
Against CG30383 [DRSC05062], the entry reads raw ATP luminescence, replicate 1 = 77380; raw ATP luminescence, replicate 2 = 73407; inactive.
CG4324 [DRSC04462] showed raw ATP luminescence, replicate 1 = 53883; raw ATP luminescence, replicate 2 = 51587; inactive.
eIF3i [DRSC03464] showed raw ATP luminescence, replicate 1 = 74930; raw ATP luminescence, replicate 2 = 50577; inactive.
CG10936 [DRSC05669] scored raw ATP luminescence, replicate 1 = 1.10e5; raw ATP luminescence, replicate 2 = 1.27e5; inactive.
Depletion of CG10936 [DRSC05670] gave: raw ATP luminescence, replicate 1 = 82513; raw ATP luminescence, replicate 2 = 1.12e5; inactive.
CG15820 [DRSC08480] gave raw ATP luminescence, replicate 1 = 54003; raw ATP luminescence, replicate 2 = 58600; inactive.
Depletion of ssh [DRSC16730] came out at: raw ATP luminescence, replicate 1 = 52950; raw ATP luminescence, replicate 2 = 46840; inactive.
Sac1 [DRSC08622] gave raw ATP luminescence, replicate 1 = 63173; raw ATP luminescence, replicate 2 = 92140; inactive.
After knock-down of CG3492 [DRSC04373], the screen gave raw ATP luminescence, replicate 1 = 67697; raw ATP luminescence, replicate 2 = 50140; inactive.
For CG34038 [DRSC04039] the deposit lists raw ATP luminescence, replicate 1 = 78400; raw ATP luminescence, replicate 2 = 79900; inactive.
Depletion of Hsp70Bb + Hsp70Bbb [DRSC15885] came out at: raw ATP luminescence, replicate 1 = 64797; raw ATP luminescence, replicate 2 = 55577; inactive.
Depletion of yki [DRSC04437] resulted in: raw ATP luminescence, replicate 1 = 61277; raw ATP luminescence, replicate 2 = 56240; inactive.
Silencing of CG7149 [DRSC03016] resulted in: raw ATP luminescence, replicate 1 = 91487; raw ATP luminescence, replicate 2 = 67520; inactive.
For Piezo [DRSC03092], the values are raw ATP luminescence, replicate 1 = 1.14e5; raw ATP luminescence, replicate 2 = 61587; inactive.
After knock-down of CG13300 [DRSC09974], the screen gave raw ATP luminescence, replicate 1 = 59517; raw ATP luminescence, replicate 2 = 74843; inactive.
Silencing of CG15145 [DRSC02446] gave: raw ATP luminescence, replicate 1 = 76130; raw ATP luminescence, replicate 2 = 79237; inactive.
Cap-D3 [DRSC02349] scored raw ATP luminescence, replicate 1 = 26830; raw ATP luminescence, replicate 2 = 24887; inactive.
RpL27 [DRSC15638] scored raw ATP luminescence, replicate 1 = 36000; raw ATP luminescence, replicate 2 = 35220; inactive.
Depletion of Hrs [DRSC00549] gave: raw ATP luminescence, replicate 1 = 91620; raw ATP luminescence, replicate 2 = 75343; inactive.
After knock-down of eg [DRSC11885], the screen gave raw ATP luminescence, replicate 1 = 62587; raw ATP luminescence, replicate 2 = 66850; inactive.
Knock-down of D12 [DRSC03311] gave: raw ATP luminescence, replicate 1 = 1.17e5; raw ATP luminescence, replicate 2 = 83787; inactive.

Just “raw ATP luminescence, replicate 1” (4 entries from above):
CG42307 + mus312 [DRSC11008] = 86113
Alg11 [DRSC11647] = 23690
CG30383 [DRSC05062] = 77380
CG4324 [DRSC04462] = 53883
